The values below come from PMC4229683.

The assay has as its target Drep-2^GFP (D. melanogaster). The experiment in a line: affinity purification with mass spectrometry; Drep-2^GFP isolated from fly head lysates (0.4% DOC, 1% Triton) on GFP-Trap agarose beads, 60 min at 4°C; controls: plain beads and GFP-negative wild-type lysate; triplicates, label-free quantification, FDR 1, 5 or 10%.

These are yes or no findings as the source states them, for the method shown. Binding seen in cells or lysates may run through a third protein. A yes stands for co-enrichment or nearness to the bait. Other partners may have been found. A no says only that the protein was not detected with the bait.

B1: DmGluRA (receptor, UniProt P91685 26-976)
chain: KSPSNTHTQDSVSVSLPGDIILGGLFPVHEKGEGAPCGPKVYNRGVQRLEAMLYAIDRVNNDPNILPGITIGVHILDTCSRDTYALNQSLQFVRASLNNLDTSGYECADGSSPQLRKNASSGPVFGVIGGSYSSVSLQVANLLRLFHIPQVSPASTAKTLSDKTRFDLFARTVPPDTFQSVALVDILKNFNWSYVSTIHSEGSYGEYGIEALHKEATERNVCIAVAEKVPSAADDKVFDSIISKLQKKPNARGVVLFTRAEDARRILQAAKRANLSQPFHWIASDGWGKQQKLLEGLEDIAEGAITVELQSEIIADFDRYMMQLTPETNQRNPWFAEYWEDTFNCVLTSLSVKPDTSNSANSTDNKIGVKAKTECDDSYRLSEKVGYEQESKTQFVVDAVYAFAYALHNLHNDRCNTQSDQTTETRKHLQSESVWYRKISTDTKSQACPDMANYDGKEFYNNYLLNVSFIDLAGSEVKFDRQGDGLARYDILNYQRQENSSGYQYKVIGKWFNGLQLNSETVVWNKETEQPTSACSLPCEVGMIKKQQGDTCCWICDSCESFEYVYDEFTCKDCGPGLWPYADKLSCYALDIQYMKWNSLFALIPMAIAIFGIALTSIVIVLFAKNHDTPLVRASGRELSYTLLFGILVCYCNTFALIAKPTIGSCVLQRFGIGVGFSIIYSALLTKTNRISRIFHSASKSAQRLKYISPQSQVVITTSLIAIQVLITMIWMVVEPPGTRFYYPDRREVILKCKIQDMSFLFSQLYNMILITICTIYAIKTRKIPENFNESKFIGFTMYTTCIIWLAFVPIYFGTGNSYEVQTTTLCISISLSASVALVCLYSPKVYILVFHPDKNVRKLTMNSTVYRRSAAAVAQGAPTSSGYSRTHAPGTSALTGGAVGTNASSSTLPTQNSPHLDEASAQTNVAHKTNGEFLPEVGERVEPICHIVNK
For the molecule B1, the binding result is “no binding”.

B2: Argonaute-2 (protein, UniProt Q9VUQ5 1-1214)
chain: MGKKDKNKKGGQDSAAAPQPQQQQKQQQQRQQQPQQLQQPQQLQQPQQLQQPQQQQQQQPHQQQQQSSRQQPSTSSGGSRASGFQQGGQQQKSQDAEGWTAQKKQGKQQVQGWTKQGQQGGHQQGRQGQDGGYQQRPPGQQQGGHQQGRQGQEGGYQQRPPGQQQGGHQQGRQGQEGGYQQRPSGQQQGGHQQGRQGQEGGYQQRPPGQQQGGHQQGRQGQEGGYQQRPSGQQQGGHQQGRQGQEGGYQQRPPGQQQGGHQQGRQGQEGGYQQRPPGQQQGGHEQGRQGQEGGYQQRPSGQQQGGHQQGRQGQEGGYQQRPSGQQQGGHQQGRQGQEGGYQQRPSGQQQGGHQQGRQGQEGGYQQRPPGQQPNQTQSQGQYQSRGPPQQQQAAPLPLPPQPAGSIKRGTIGKPGQVGINYLDLDLSKMPSVAYHYDVKIMPERPKKFYRQAFEQFRVDQLGGAVLAYDGKASCYSVDKLPLNSQNPEVTVTDRNGRTLRYTIEIKETGDSTIDLKSLTTYMNDRIFDKPMRAMQCVEVVLASPCHNKAIRVGRSFFKMSDPNNRHELDDGYEALVGLYQAFMLGDRPFLNVDISHKSFPISMPMIEYLERFSLKAKINNTTNLDYSRRFLEPFLRGINVVYTPPQSFQSAPRVYRVNGLSRAPASSETFEHDGKKVTIASYFHSRNYPLKFPQLHCLNVGSSIKSILLPIELCSIEEGQALNRKDGATQVANMIKYAATSTNVRKRKIMNLLQYFQHNLDPTISRFGIRIANDFIVVSTRVLSPPQVEYHSKRFTMVKNGSWRMDGMKFLEPKPKAHKCAVLYCDPRSGRKMNYTQLNDFGNLIISQGKAVNISLDSDVTYRPFTDDERSLDTIFADLKRSQHDLAIVIIPQFRISYDTIKQKAELQHGILTQCIKQFTVERKCNNQTIGNILLKINSKLNGINHKIKDDPRLPMMKNTMYIGADVTHPSPDQREIPSVVGVAASHDPYGASYNMQYRLQRGALEEIEDMFSITLEHLRVYKEYRNAYPDHIIYYRDGVSDGQFPKIKNEELRCIKQACDKVGCKPKICCVIVVKRHHTRFFPSGDVTTSNKFNNVDPGTVVDRTIVHPNEMQFFMVSHQAIQGTAKPTRYNVIENTGNLDIDLLQQLTYNLCHMFPRCNRSVSYPAPAYLAHLVAARGRVYLTGTNRFLDLKKEYAKRTIVPEFMKKNPMYFV
For B2, the binding entry is given as “binds”.

B3: Caprin (protein, UniProt Q9I7D3 1-961)
chain: MPSAANTATVTAAIATTVAASASNTNNNSVSKEKRSSIISLGGSVIPGTAVAAGAGVATTNGQSNSSAAATADGSQTDLASSNNNGNAAKSKANAVSAAAVVPEPYNPLKQLLVTIEHKIRNLEKRKTKLESYRAIQSSGKELSGDQASAVAKYDAVLANLEFARELAKHIQQQSKEAEKEQKKQARKDNLAKTIAETAKIREVLIIQNVLNCFNDDQVRSDFLNGENGAKKLENTELELLEKFFIETQTRRPETADDVSFIATAQKSAELFYSTINARPKSFGEVSFEKLRSLFQQIQDSGYLDKYYLVPLAENAVANSTDSGTGSGDGESGDLLNDGSGELDAELPSEPSARNSLEEGLDKLHLGVQAELDQHQSYQQQQERPSHLLEPQHQRAPSLEHQQNSMVQQVSTQVYQAAPQAGGTTTPVHVLYAPAPPAQQQPQQPPPHPHQLLSSPVNLQALQTGTAAPPAQQQQPHPTHFAPNVRAVEQNYFKQPPQHPQGPGIQAPQTPQQQQFMQHSRPLAEVLGTGRFHFLQDSELDNPEALAPPPPTNQGLVFEQQPQQPNHVEEPTQAILTLTFTNQSFPSQQPQPQQQGPQQQQQLFSPVLIHEQRQQPPQQQPQPMLIMPRLPTQQPQQPAPQGIGMQAGDVTSGFSYENAVVSYEQQIQQQLKQQQQQQQQQQQNLQQLDEPSSVNSSSSVGAGGDVENNEWHARNNDTNAAATAALTNVLKGETTQATPPAPPTKWSSEMNAMSSAASNGSSNTSHKQEWATPRDHSTGGGNSGYADNNESNNHWNNSQGDGRRNSGNYQRRGGDRDNRDRDQGGRGDERRNGGDRGNYRSRQYGNSSNTNGRNSGNSSGVYFRNNESGNGGGNNYYQNGGGGGGTYNKESRYESSGGGGGSYRGQRGGNQQRNVNGSYGGGRPMGDRGRGGAGNQGGGGGGYINRQNQSQRMPLGLENKN
Turning to B3, the binding result is given as “binds”.
